Results deposited as PubChem BioAssay AID652272 (Drosophila RNAi Screening Center, 2013).
The deposit covers about 21,000 reagents; shown is an unselected part of those that have a named target and a result. In the full data, 503 (2.4%) were called active. 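Raw plate light values, not normalised; calls rest on replicate z-scores that were not deposited; hits include reporter decreases as well as increases.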 The record does not give: the amount of reagent, the time to read-out.

Screen: 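Genes whose knock-down decreases or increases Hedgehog reporter output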 (primary screen)
Cell system: Drosophila clone 8 (Cl8) cells
Reagent: long dsRNA against Drosophila genes
Measurement: 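Plate reader light from a firefly reporter under a ptc promoter fragment that responds to Hedgehog, with Renilla light as transfection reference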
Direction: firefly Hh reporter signal: higher = more ptc reporter light; Renilla reference signal: higher = more Renilla control light
Rule for the call: 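Called a hit if the two-replicate mean z-score lies below -2 or above +3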
Meaning of the calls: active = hit: reporter lowered or raised; inactive = not a hit

| gene | DRSC id | firefly Hh reporter signal, replicate 1 | firefly Hh reporter signal, replicate 2 | firefly Hh reporter signal, replicate 3 | Renilla reference signal, replicate 1 | Renilla reference signal, replicate 2 | call |
| --- | --- | --- | --- | --- | --- | --- | --- |
| CG15715 | DRSC10216 | 1.30e5 | – | – | 3788 | 3697 | inactive |
| Smyd5 | DRSC15483 | 4.94e5 | 81035 | – | 27388 | 377 | inactive |
| Prx4 | DRSC08668 | 83252 | 49345 | – | 2016 | 3548 | inactive |
| Nepl20 | DRSC14878 | 1.03e5 | 1.36e5 | – | 3312 | 4748 | inactive |
| CG10953 | DRSC06021 | 1.05e5 | 56355 | – | 1339 | 4800 | inactive |
| CG15042 | DRSC19618 | 92214 | 2.13e5 | – | 2841 | 9431 | inactive |
| Dis3l2 | DRSC08496 | 81211 | 62745 | – | 3837 | 2537 | inactive |
| Ant2 | DRSC19330 | 77808 | 85164 | – | 1930 | 2189 | inactive |
| Polr1A | DRSC07535 | 64432 | 47318 | – | 4662 | 2901 | inactive |
| CG13578 | DRSC04214 | 79264 | 40385 | – | 2176 | 4297 | inactive |
| S6KL | DRSC19349 | 1.52e5 | 1.32e5 | – | 3736 | 3542 | inactive |
| Cyp317a1 | DRSC07366 | 81296 | 62297 | – | 1895 | 4635 | inactive |
| Mo25 | DRSC11224 | 77072 | 81048 | – | 2930 | 2077 | inactive |
| CG31496 | DRSC12547 | 6.70e5 | 1.43e5 | – | 5474 | 5474 | inactive |
| CG10581 | DRSC11623 | 91472 | 1.50e5 | – | 3281 | 4309 | inactive |
| CG8841 | DRSC07286 | 60928 | 60946 | – | 2279 | 2406 | inactive |

Continued, starting with the last 3 of the part before.
| gene | DRSC id | firefly Hh reporter signal, replicate 1 | firefly Hh reporter signal, replicate 2 | firefly Hh reporter signal, replicate 3 | Renilla reference signal, replicate 1 | Renilla reference signal, replicate 2 | call |
| --- | --- | --- | --- | --- | --- | --- | --- |
| CG31496 | DRSC12547 | 6.70e5 | 1.43e5 | – | 5474 | 5474 | inactive |
| CG10581 | DRSC11623 | 91472 | 1.50e5 | – | 3281 | 4309 | inactive |
| CG8841 | DRSC07286 | 60928 | 60946 | – | 2279 | 2406 | inactive |
| CG31010 | DRSC14006 | 5.54e5 | 2.37e5 | – | 27276 | 4900 | inactive |
| CG5704 | DRSC08572 | 1.21e5 | 81072 | – | 5976 | 3680 | inactive |
| y | DRSC18853 | 78971 | 4.20e5 | – | 1968 | 14937 | inactive |
| Naprt | DRSC00630 | 97476 | 1.01e5 | – | 4113 | 4340 | inactive |
| CG13323 | DRSC06360 | 1.04e5 | 58520 | – | 2613 | 4584 | inactive |
| CG14013 | DRSC02344 | 88065 | 23069 | – | 1890 | 3173 | inactive |
| row | DRSC07076 | 49049 | 72434 | – | 3180 | 3960 | inactive |
| row | DRSC07077 | 82673 | 71536 | – | 2226 | 4124 | inactive |
| Alk | DRSC05918 | 1.42e5 | 67156 | – | 3651 | 4962 | inactive |
| fs(1)h | DRSC18778 | 1.66e5 | 5.99e5 | 1.07e5 | 3689 | 38676 | inactive |
| CG11737 | DRSC14364 | 51261 | 1.03e5 | – | 2086 | 2873 | inactive |
| bur | DRSC03163 | 94547 | 77286 | – | 3478 | 2905 | inactive |
| Hsdl2 | DRSC15839 | 87113 | 78498 | – | 2282 | 1991 | inactive |
| msopa | DRSC11895 | 49730 | 41792 | – | 1813 | 1258 | inactive |
| CG33136 | DRSC05744 | 1.23e5 | 1.41e5 | – | 3555 | 7316 | inactive |
| CG12780 | DRSC06169 | 1.06e5 | 62715 | – | 2861 | 5171 | inactive |
| CG6325 | DRSC16020 | 1.07e5 | 74508 | – | 3968 | 2875 | inactive |
| CG17026 | DRSC10237 | 2.02e5 | – | – | 1945 | 5768 | inactive |
| Drep4 | DRSC03408 | 1.18e5 | 59259 | – | 2759 | 6124 | inactive |
| CG12259 | DRSC14486 | 65804 | 1.05e5 | – | 2848 | 3425 | inactive |
| CG16758 | DRSC07984 | 86481 | 1.30e5 | – | 2180 | 5301 | inactive |
| CG16758 | DRSC08492 | 1.11e5 | 95756 | – | 5746 | 4091 | inactive |
| CG11756 | DRSC19424 | 77368 | 2.31e5 | – | 2432 | 8451 | inactive |
